Reference: PubChem BioAssay AID2417 (National Center for Advancing Translational Sciences (NCATS), 2010)
The whole screen tested about 140,000 compounds, of which about 4,300 (3.1%) were called active. The inconclusive results got no clear call from the source; some entries with a clear call stand among them for comparison.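 How the source made its calls: active means readout at or below -70, meaning at least 70% loss of cells showing the perinucleolar compartment, a nuclear body marking cancer cells; inconclusive means readout between -30 and a set limit; inactive means the rest.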

Assay: High Content Assay for Compounds that inhibit the Assembly of the Perinucleolar Compartment;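 further: plate controls were DMSO wells for no effect and camptothecin positive control wells for full effect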
Details: PC3M PTB-GFP, PNC prevalence imaging, 16 h; at 10 µM; stronger effect = lower value
How it was run: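 Read-out is percentage of cells bearing a perinucleolar compartment, from automated 20x imaging of fixed, Hoechst-stained PC3M PTB-GFP cells. Cells were seeded 4 h, then exposed 16 h to compound (23 nl of library stock) in duplicate plates.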

SMILES	activity change (PNC), negative = inhibition
Cc1ccc(N2C(N)=NC(N)=NC23CCCC3)c(C)c1	inconclusive: -66.8%
O=C(NCCc1ccccn1)c1ccc(S(=O)(=O)N2CCCCCC2)cc1	inconclusive: -37.4%
O=C(O)c1ccc(N=NN2CCOCC2)cc1	inconclusive: -56.5%
CCOC(=O)c1c(C)c(C(=O)NCCc2ccc(S(N)(=O)=O)cc2)c(C)n1CC	inconclusive: -48.7%
CCC(CC)C(=O)Nc1cc(C(=O)OC)ccc1C(=O)OC	inconclusive: -52.7%
NC1=NC(=O)C(CC(=O)c2ccc(Cl)cc2)S1 (stereo unspecified)	inactive: 6.41%
COc1ccc(C(Nc2ccccn2)c2c(NC(=O)c3ccco3)sc(C)c2C)cc1 (stereo unspecified)	inactive: -21%
CCS(=O)(=O)N1Cc2ccccc2CC1C(=O)N1CCN(c2cccc(C)c2C)CC1 (stereo unspecified)	inactive: 16.1%
CCn1c(=O)cc(O)c2ccccc21	inconclusive: -39.8%
CC(C)CC(=O)Nc1ncnc2c1C(=O)CC(C)(C)C2	inconclusive: -48.2%
CCc1ccc(NC(=O)COC(=O)/C(=C/c2ccccc2OC)c2ccccc2)cc1	inconclusive: -35.4%
CCC1SC(N)=NC1=O (stereo unspecified)	active: -89.6%
O=C(c1ccc(S(=O)(=O)N2CCCC2)cc1)N1CCN(Cc2ccc3c(c2)OCO3)CC1	inconclusive: -41.3%
COc1cccc(C2C(C(=O)Nc3ccccc3)=C(C)N=c3s/c(=C/c4ccc(OCC(=O)O)cc4)c(=O)n32)c1 (stereo unspecified)	inactive: -1.56%
Nc1[nH]n(-c2ccccc2)c(=O)c1N=Nc1ccccc1[N+](=O)[O-]	inconclusive: -45.8%
Cc1ccc(S(=O)(=O)CCc2nnc(N)s2)cc1	inactive: -9.83%
O=C(O)CSCC(=O)Nc1ccc(S(=O)(=O)N2CCCCC2)cc1	inactive: 13.1%
CCn1cc(C2=NOC(C(=O)Nc3cc(OC)c(Cl)cc3OC)C2)c(C)n1 (stereo unspecified)	inconclusive: -54%
CCOc1cccc(C(=O)NC(=S)NCc2cccnc2)c1	inconclusive: -42.7%
CSc1nnc2c(n1)OC(c1cn(C)c3ccccc13)N(C(C)=O)c1ccccc1-2 (stereo unspecified)	inconclusive: -59.5%
Cc1ccc(C(=O)Nc2ccccc2SCC2CSc3nc4ccccc4c(=O)n32)cc1 (stereo unspecified)	inconclusive: -76.9%
COc1ccc(C2C(C(=O)Nc3cccnc3)=C(C)Nc3nc(-c4cccs4)nn32)cc1 (stereo unspecified)	inactive: -8.21%
O=C(Cn1nnc2ccccc21)NCc1ccccc1	inconclusive: -61.2%

Reprinted at random: two entries already listed.
SMILES	activity change (PNC), negative = inhibition
CCn1c(=O)cc(O)c2ccccc21	inconclusive: -39.8%
CCC1SC(N)=NC1=O (stereo unspecified)	active: -89.6%

(more compounds)

SMILES	activity change (PNC), negative = inhibition
O=C(CN1CCN(c2ccccc2)CC1)Nc1ccccc1Sc1ccccc1	inconclusive: -43.6%
C=CCn1c(CNc2ccccc2)nnc1SCC(=O)N/N=C/c1ccccc1O	inactive: 35.6%
CCOC(=O)CNC(=O)c1ccc2c(c1)OCCO2	inconclusive: -62.1%
Cc1ccc(N2C(=O)[C@@H]3C(c4ccc(F)cc4)=NO[C@@H]3C2=O)cc1	active: -94.7%
CCN(CC)c1ncn(Cc2c(Cl)cccc2Cl)c2ncnc1-2	inconclusive: -37.6%
O=C(O)CC(=O)Nc1cc(Cl)ccc1O	inactive: 7.93%
O=C1CCCN1CCNC(=S)Nc1ccccc1	inactive: 6.34%
CN(C)CCNC(=O)/C=N/O	active: -88.9%
COCCn1c(=S)[nH]c2cc(C(=O)N3CCN(c4ccccc4OC)CC3)ccc2c1=O	inconclusive: -41.1%
COc1cccc(C(=O)Nc2c(F)c(F)c(F)c(F)c2F)c1	inactive: -13.8%
CCOCCCNC(=O)C(NC(=O)c1ccc(=O)[nH]c1)c1ccccc1 (stereo unspecified)	inactive: 18.2%
CC(C)(C)SCCNC(=O)c1ccc(Cl)c([N+](=O)[O-])c1	inactive: 56.6%
Cc1onc(-c2c(F)cccc2Cl)c1C(=O)Nc1nnc(-c2ccccc2)s1	inconclusive: -60%
CSc1nc(C)cc(C)c1S(=O)(=O)c1ccccc1C	inactive: -11.6%
Cc1ccc(NC(=S)NNC(=O)C2CC2c2ccc(C)cc2)cc1 (stereo unspecified)	active: -100%
CCN(CC)CCCNC(=O)c1cc(-c2cccc(Cl)c2)on1	inconclusive: -47.8%
CCOc1ccc(NC(=O)C(c2ccccn2)N(C(=O)CCl)c2ccc(F)cc2)cc1 (stereo unspecified)	inactive: -16.5%
CCN(CC)S(=O)(=O)c1cccc(-c2nnc(SCC(=O)c3cc(C)n(C4CC4)c3C)o2)c1	inactive: 1.1%
CC1=C(C(=O)Nc2ccccn2)C(c2ccc(Br)cc2)n2ncnc2N1 (stereo unspecified)	inactive: 10.8%
Cc1ccccc1NC(=O)c1ccccc1	inconclusive: -35.8%
CC(C)(C)c1ccc(C(=O)C=[N+]=[N-])cc1	inconclusive: -43.1%
O=C(NCCc1ccccc1)c1oc2ccccc2c1COc1ccccc1	inconclusive: -48.2%
COc1cc(/C=C/C(=O)OCC(=O)NCc2cccs2)ccc1OC(F)F	inconclusive: -33.4%

4 successive entries out of the list so far, for reference:
SMILES	activity change (PNC), negative = inhibition
CSc1nc(C)cc(C)c1S(=O)(=O)c1ccccc1C	inactive: -11.6%
Cc1ccc(NC(=S)NNC(=O)C2CC2c2ccc(C)cc2)cc1 (stereo unspecified)	active: -100%
CCN(CC)CCCNC(=O)c1cc(-c2cccc(Cl)c2)on1	inconclusive: -47.8%
CCOc1ccc(NC(=O)C(c2ccccn2)N(C(=O)CCl)c2ccc(F)cc2)cc1 (stereo unspecified)	inactive: -16.5%

Later entries.

SMILES	activity change (PNC), negative = inhibition
Fc1ccc(CN(Cc2ccccc2)C(c2cccs2)c2nnnn2C2CCCCC2)cc1 (stereo unspecified)	inconclusive: -32.1%
COCCn1nnnc1C(C(C)C)N(Cc1cccnc1)Cc1cc2cc(OC)ccc2[nH]c1=O (stereo unspecified)	inconclusive: -37.5%
O=C(NCc1ccccn1)/C(=N/O)c1ccccc1	inconclusive: -30.2%
COc1cc(OCC(N)=O)cc(OC)c1OC	inconclusive: -73.5%
Cc1ccsc1C(=O)OC1CCOC1=O (stereo unspecified)	inconclusive: -62.7%
Cn1c(=O)[nH]c(=O)c2c1nc(N1CCCC1)n2CC(O)COc1ccccc1 (stereo unspecified)	inconclusive: -56.6%
CCCC1Nc2ccc(C(=O)O)cc2C2C=CCC12 (stereo unspecified)	inconclusive: -56.9%
Fc1cc(F)c(F)c(SCCc2ccncc2)c1F	inconclusive: -50.6%
Cc1cc(C(F)(F)F)n(-c2nc(C(=O)NNS(=O)(=O)c3ccccc3)cs2)n1	inconclusive: -33.4%
C/C(=N\NC(=O)Cc1cc(=O)[nH][nH]1)c1cccc([N+](=O)[O-])c1	inconclusive: -43.3%
O=C(Cc1ccc(-n2cccc2)cc1)NCc1cccs1	active: -106%
O=C(NC1CCCC1)c1cnc2n(c1=O)CCS2	inactive: -25.9%
COc1ccc(CCN2C(=NC(=O)CC(C)C)SC3CS(=O)(=O)CC32)cc1 (stereo unspecified)	inconclusive: -40.5%
COc1cccc(C(=O)Nc2ccc(NC(=O)C(C)(C)C)cn2)c1	active: -83.9%
N#Cc1c(NC(=O)CCCN2C(=O)c3ccccc3C2=O)oc(-c2ccccc2)c1-c1ccccc1	inactive: -11.2%
O=C(NCc1ccccn1)c1cc2ccccc2oc1=O	inconclusive: -39.7%
COc1ccc(C(C(=O)NC2CCCCC2)N(CC2CCCO2)C(=O)C2COc3ccccc3O2)cc1OC (stereo unspecified)	inconclusive: -50.4%
CCOc1ncccc1C(=O)OCC(=O)Nc1c(C)cc(C)cc1C	inconclusive: -49.1%
Cc1ccc(CN2CCN(C(=O)C3CCCO3)CC2)cc1 (stereo unspecified)	inconclusive: -30.2%
Cc1nn(-c2ccccc2)c(C)c1/C=N/NC(=O)c1cc(-c2ccccc2)n[nH]1	active: -87.4%
COC(=O)c1ccccc1NC(=O)Cn1c(-c2nonc2N)nc2ccccc21	active: -97.7%
O=C(NCC(=O)N(Cc1ccco1)C(C(=O)NC1CCCCC1)c1cccnc1)c1cccs1 (stereo unspecified)	inconclusive: -36.4%
O=C(COc1ccc2ccccc2c1Br)NC(=S)Nc1cccc(CO)c1	inactive: 57.8%

SMILES	activity change (PNC), negative = inhibition
O=C(Nc1ccccc1C(F)(F)F)N1CCN(C(c2ccccc2)c2ccccc2)CC1	inconclusive: -65.2%
COC(=O)c1ccc(COC(=O)c2ccc(-n3cnnn3)cc2)o1	inactive: -23.1%
CCOc1ccc(N2C(=O)CS/C2=C(\C(Cl)=C(Cl)Cl)[N+](=O)[O-])cc1	inactive: 49.9%
CC(/C=C1\SC(=S)N(CCCC(=O)Nc2ccc(C(=O)O)c(O)c2)C1=O)=C\c1ccccc1	inactive: -13.8%
O=C(NC1CCCC1)NS(=O)(=O)c1ccccc1Cl	inconclusive: -63.8%
O=C(NCCC1=CCCCC1)C(=O)NCC(c1ccco1)N1CCN(c2ccc(F)cc2)CC1 (stereo unspecified)	inactive: 6.37%
CCC1(C)N([O-])C(C)=C(c2ccccc2)[N+]1=O (stereo unspecified)	active: -88.3%
O=C(CSc1ccc(Cl)cc1)Nc1nnc(-c2cccc([N+](=O)[O-])c2)s1	inconclusive: -53.9%
COc1ccc(CN(C)C(=O)COC(=O)c2ccc3c(c2)OCO3)cc1OC	inconclusive: -41%
COC(=O)CNC(c1ccccc1)c1cc(C)ccc1NS(=O)(=O)c1ccc(C)cc1 (stereo unspecified)	inconclusive: -32.3%
O=C(O)CCCCCCNS(=O)(=O)c1ccccc1	inactive: 23.5%
c1ccc(SCCOCCn2cncn2)cc1	inconclusive: -67.3%
Cc1ccc(C(=O)NNC(=S)Nc2cccc(Cl)c2Cl)cc1[N+](=O)[O-]	inactive: 28.3%
COc1ccc(NC(=O)CN2c3cccc4cccc(c34)S2(=O)=O)c(OC)c1	inconclusive: -48.3%
CCC(=O)Nc1ccc(N2CCN(Cc3ccccc3F)CC2)cc1	inconclusive: -53.9%
Cc1nnc(SCc2ccc(F)cc2)s1	inconclusive: -47.8%
CC(C)(C)c1ccc(C(=O)NC(=S)NCC2CCCO2)cc1 (stereo unspecified)	inactive: -19.3%
Cc1cc(C)c(C)c(OCC(=O)N2CCOCC2)c1	inconclusive: -34.5%
O=C(/C=C/N1CCOCC1)c1ccc(-c2ccccc2)cc1	inactive: -15.7%
O=C(O)c1c2c(nc3ccc(F)cc13)CCC2	inconclusive: -43.2%
COc1cccc(C2CC(=O)N3CN(c4cccc(Cl)c4C)CSC3=C2C#N)c1OC (stereo unspecified)	inconclusive: -46.7%
COc1c2c(nc3ccccc13)OC(C(C)(O)CO)C2 (stereo unspecified)	inconclusive: -39.6%
